The supplement of paper PMC10849652
Some of the results follow.

Amino acid sequences for entries named in this document (tags omitted). A change or cut given only in a name is not applied to a line headed by its entry.
UniProt O60293: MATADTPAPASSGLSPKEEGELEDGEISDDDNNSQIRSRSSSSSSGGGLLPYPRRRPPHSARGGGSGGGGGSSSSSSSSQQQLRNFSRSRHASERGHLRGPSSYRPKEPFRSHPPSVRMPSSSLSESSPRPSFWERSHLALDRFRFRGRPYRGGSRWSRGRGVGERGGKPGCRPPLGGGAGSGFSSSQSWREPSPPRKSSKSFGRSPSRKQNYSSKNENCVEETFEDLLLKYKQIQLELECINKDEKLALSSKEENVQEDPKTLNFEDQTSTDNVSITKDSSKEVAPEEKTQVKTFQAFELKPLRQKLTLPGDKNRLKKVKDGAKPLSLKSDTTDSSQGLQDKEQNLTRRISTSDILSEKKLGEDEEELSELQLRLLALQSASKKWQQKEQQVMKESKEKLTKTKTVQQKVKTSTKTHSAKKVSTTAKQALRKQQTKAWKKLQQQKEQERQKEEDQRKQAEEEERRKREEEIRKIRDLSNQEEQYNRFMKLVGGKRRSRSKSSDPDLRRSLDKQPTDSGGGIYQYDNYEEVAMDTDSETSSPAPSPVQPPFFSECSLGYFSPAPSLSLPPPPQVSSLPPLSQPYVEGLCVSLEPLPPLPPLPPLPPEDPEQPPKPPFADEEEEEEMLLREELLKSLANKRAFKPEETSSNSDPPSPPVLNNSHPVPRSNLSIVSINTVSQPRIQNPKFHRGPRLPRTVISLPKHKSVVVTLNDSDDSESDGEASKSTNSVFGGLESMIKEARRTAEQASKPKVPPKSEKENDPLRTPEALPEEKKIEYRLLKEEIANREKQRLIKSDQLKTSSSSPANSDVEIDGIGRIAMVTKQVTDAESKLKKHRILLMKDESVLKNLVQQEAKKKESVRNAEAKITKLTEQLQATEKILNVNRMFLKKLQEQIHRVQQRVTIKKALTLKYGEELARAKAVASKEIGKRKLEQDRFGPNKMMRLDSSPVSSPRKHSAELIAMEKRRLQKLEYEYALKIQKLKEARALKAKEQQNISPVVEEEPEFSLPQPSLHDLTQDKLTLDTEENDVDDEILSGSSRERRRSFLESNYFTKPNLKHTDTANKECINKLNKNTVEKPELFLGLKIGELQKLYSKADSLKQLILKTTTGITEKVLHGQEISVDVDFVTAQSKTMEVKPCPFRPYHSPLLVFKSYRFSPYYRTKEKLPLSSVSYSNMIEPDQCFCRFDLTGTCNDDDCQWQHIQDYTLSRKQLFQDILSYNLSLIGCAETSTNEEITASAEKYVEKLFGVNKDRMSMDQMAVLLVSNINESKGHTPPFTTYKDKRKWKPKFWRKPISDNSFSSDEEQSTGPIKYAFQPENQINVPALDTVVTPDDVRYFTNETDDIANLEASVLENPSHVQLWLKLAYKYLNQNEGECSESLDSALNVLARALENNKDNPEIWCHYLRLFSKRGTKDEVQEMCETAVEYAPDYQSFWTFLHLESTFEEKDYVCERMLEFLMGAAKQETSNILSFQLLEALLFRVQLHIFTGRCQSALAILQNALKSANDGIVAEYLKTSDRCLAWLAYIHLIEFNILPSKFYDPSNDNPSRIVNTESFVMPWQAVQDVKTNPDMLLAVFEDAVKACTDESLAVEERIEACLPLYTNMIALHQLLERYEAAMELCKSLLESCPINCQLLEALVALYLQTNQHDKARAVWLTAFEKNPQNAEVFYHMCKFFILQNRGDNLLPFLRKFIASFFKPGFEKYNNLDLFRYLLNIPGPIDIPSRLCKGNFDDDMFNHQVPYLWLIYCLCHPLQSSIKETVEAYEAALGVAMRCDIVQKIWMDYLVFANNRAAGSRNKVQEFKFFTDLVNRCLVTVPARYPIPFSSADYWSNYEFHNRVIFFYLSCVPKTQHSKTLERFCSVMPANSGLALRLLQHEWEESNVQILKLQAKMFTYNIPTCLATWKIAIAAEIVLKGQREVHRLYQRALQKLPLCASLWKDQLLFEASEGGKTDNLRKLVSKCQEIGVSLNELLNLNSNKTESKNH
UniProt P54577: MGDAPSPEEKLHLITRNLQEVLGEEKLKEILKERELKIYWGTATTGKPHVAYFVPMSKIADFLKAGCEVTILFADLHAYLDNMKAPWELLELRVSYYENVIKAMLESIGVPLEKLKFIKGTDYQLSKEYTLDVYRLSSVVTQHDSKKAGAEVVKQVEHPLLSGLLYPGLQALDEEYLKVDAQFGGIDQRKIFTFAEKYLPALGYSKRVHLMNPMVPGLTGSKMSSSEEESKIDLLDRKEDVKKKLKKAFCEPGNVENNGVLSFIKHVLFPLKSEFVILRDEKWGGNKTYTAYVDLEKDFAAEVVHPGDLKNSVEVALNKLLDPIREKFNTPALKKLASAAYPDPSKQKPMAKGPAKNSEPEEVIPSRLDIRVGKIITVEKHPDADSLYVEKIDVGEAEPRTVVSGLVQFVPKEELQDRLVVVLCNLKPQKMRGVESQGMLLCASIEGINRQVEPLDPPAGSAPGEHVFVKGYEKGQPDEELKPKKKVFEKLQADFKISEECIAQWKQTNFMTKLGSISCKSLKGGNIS
UniProt Q9NP64: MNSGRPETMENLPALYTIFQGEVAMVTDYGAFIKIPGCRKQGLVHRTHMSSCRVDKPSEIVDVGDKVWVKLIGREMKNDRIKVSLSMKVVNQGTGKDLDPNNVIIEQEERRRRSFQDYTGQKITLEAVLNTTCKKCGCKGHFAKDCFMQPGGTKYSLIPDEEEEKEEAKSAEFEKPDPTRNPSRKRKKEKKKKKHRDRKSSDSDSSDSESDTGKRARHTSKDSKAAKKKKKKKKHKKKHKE
UniProt O43167: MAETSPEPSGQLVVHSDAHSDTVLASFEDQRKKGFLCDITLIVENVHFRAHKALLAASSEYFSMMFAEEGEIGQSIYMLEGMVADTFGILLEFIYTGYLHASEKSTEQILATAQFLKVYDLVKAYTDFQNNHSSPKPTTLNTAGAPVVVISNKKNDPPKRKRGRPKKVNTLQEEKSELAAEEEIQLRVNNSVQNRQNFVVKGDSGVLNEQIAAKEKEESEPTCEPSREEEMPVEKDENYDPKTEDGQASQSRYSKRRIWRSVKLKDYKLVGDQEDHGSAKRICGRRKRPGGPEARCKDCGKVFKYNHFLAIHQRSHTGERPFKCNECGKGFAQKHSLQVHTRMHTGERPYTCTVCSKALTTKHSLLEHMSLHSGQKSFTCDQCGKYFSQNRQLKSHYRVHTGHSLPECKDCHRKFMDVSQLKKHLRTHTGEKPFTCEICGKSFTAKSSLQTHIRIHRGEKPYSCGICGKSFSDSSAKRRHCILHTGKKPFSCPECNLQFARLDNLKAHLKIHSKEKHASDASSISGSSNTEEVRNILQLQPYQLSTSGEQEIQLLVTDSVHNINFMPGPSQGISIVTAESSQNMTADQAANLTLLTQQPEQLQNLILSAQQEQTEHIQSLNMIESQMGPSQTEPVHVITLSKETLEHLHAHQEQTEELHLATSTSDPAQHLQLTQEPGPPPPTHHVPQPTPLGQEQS
UniProt Q9UQR1: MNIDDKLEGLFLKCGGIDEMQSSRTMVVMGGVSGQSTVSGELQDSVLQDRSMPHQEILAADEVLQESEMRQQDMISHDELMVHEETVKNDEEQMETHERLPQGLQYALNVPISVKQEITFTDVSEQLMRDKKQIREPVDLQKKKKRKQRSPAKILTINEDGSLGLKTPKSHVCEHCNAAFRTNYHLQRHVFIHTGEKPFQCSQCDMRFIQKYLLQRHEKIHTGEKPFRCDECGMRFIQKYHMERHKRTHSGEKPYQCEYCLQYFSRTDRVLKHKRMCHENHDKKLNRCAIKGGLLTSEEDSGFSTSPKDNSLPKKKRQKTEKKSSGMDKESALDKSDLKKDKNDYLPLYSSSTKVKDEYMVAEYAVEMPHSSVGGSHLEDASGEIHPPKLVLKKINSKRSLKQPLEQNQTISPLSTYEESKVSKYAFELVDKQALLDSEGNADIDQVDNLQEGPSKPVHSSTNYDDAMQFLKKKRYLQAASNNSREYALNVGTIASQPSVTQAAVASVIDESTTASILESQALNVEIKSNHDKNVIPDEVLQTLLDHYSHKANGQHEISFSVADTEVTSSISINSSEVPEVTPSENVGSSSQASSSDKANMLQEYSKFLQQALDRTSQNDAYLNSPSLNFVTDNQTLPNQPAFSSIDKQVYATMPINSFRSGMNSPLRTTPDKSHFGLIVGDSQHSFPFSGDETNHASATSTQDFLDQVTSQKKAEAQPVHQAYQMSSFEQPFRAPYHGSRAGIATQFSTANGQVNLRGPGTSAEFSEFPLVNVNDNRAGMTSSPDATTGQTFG
UniProt Q9UIJ5: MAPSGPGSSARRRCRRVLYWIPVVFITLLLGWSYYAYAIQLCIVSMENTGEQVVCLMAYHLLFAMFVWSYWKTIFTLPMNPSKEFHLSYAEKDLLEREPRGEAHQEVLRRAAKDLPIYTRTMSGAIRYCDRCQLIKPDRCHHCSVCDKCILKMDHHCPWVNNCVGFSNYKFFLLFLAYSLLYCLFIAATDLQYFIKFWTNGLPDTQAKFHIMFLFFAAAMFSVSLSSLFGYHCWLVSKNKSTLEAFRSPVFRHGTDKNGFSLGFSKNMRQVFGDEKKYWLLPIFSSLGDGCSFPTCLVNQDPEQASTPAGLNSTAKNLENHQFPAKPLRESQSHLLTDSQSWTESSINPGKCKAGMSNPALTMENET
UniProt Q9UGR2: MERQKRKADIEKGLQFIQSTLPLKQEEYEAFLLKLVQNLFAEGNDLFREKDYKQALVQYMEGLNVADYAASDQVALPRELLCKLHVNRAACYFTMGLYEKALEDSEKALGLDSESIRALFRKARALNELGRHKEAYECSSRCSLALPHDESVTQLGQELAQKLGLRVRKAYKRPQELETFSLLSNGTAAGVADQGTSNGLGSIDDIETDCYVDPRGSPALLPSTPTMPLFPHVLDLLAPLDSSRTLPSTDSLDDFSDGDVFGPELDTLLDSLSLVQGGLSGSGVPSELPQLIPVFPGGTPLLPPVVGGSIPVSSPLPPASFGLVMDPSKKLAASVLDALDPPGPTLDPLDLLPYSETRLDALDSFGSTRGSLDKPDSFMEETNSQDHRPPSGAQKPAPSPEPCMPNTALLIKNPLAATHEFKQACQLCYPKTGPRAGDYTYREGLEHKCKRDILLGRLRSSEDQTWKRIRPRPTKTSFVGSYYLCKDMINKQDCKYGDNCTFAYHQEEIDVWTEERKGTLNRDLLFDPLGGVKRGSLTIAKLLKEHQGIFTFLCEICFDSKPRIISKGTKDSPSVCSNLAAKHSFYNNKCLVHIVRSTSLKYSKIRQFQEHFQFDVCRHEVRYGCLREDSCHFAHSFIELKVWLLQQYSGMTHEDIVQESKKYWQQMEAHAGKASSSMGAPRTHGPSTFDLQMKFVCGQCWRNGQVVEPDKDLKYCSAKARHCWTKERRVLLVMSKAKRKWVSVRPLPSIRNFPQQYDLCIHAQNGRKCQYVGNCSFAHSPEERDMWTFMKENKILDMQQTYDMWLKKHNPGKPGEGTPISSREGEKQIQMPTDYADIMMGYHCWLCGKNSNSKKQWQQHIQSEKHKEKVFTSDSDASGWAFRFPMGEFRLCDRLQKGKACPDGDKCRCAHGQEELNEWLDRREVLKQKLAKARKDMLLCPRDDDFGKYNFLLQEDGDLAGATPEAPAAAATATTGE
UniProt Q96DA0: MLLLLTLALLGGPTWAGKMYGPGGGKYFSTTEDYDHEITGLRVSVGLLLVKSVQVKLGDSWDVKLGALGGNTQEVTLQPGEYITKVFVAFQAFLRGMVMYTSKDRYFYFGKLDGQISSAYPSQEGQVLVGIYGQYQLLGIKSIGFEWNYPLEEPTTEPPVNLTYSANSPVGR
UniProt O95365: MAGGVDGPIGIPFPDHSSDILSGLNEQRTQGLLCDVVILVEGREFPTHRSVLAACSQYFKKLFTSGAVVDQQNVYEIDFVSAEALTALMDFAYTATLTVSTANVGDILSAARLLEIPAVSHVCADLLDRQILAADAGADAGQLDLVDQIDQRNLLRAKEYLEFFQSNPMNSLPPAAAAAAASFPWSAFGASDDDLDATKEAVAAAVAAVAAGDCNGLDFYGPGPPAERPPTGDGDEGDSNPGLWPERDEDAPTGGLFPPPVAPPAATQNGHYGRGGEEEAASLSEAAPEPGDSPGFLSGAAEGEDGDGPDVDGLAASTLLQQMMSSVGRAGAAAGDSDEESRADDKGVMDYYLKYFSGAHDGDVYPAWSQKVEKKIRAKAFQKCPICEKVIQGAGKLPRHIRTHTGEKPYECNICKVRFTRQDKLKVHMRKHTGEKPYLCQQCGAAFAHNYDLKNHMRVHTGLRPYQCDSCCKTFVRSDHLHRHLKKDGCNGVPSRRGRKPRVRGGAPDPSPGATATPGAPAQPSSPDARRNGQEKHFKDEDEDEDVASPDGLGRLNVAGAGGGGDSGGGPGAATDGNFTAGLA

Experiments:
Experiment in all cases: log2 fold change, soluble protein after heating vs DMSO (PISA); higher = thermal stabilisation; K562 cells, 10 uM, 30 min; active = over 0.2 and 3.5 SD of the protein, either way, in both replicates (recomputed)
[1] = compound: NC(=O)Nc1cc(-c2cccc(F)c2)sc1C(=O)N[C@H]1CCCNC1
Procedure, shortened: (§1)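 K562 cells at 2×10^6 cells/mL were exposed to 10 μM compound for 30 min, then aliquots were heated for 3 min across 48°C-58°C, pooled, and extracted in PBS containing 0.5% NP-40 at 4°C. The supernatant after 21,000xg for 90 min was taken as soluble protein and measured by TMTpro 16plex LC-MS/MS with channel sums equalised. Thermal stability is reported relative to control samples, with values from duplicates. Fold changes are given on a log2 scale.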

[2] = compound: NC(=O)c1cnc(N[C@@H]2CCCC[C@@H]2N)nc1Nc1cccc(-n2nccn2)c1
Procedure, shortened: as §1

[3] = compound: NC1(c2ccc(-c3nc4ccn5c(=O)[nH]nc5c4cc3-c3ccccc3)cc2)CCC1
Procedure, shortened: as §1

[4] = compound: NCC(=O)Nc1ccc(-n2nc(C(F)(F)F)cc2-c2ccc3c(ccc4ccccc43)c2)cc1
Procedure, shortened: as §1

entinostat = compound: Nc1ccccc1NC(=O)c1ccc(CNC(=O)OCc2cccnc2)cc1 [entinostat]
Procedure, shortened: as §1

vorinostat = compound: O=C(CCCCCCC(=O)Nc1ccccc1)NO [vorinostat]
Procedure, shortened: as §1

citarinostat = compound: O=C(CCCCCCNC(=O)c1cnc(N(c2ccccc2)c2ccccc2Cl)nc1)NO [citarinostat]
Procedure, shortened: as §1

silmitasertib = compound: O=C(O)c1ccc2c(c1)nc(Nc1cccc(Cl)c1)c1ccncc12 [silmitasertib]
Procedure, shortened: as §1

[5] = compound: c1cc(OCCN2CCCCC2)cc(-c2n[nH]c3ccc(-c4nnc[nH]4)cc23)c1
Procedure, shortened: as §1

entospletinib = compound: c1cn2cc(-c3ccc4cn[nH]c4c3)nc(Nc3ccc(N4CCOCC4)cc3)c2n1 [entospletinib]
Procedure, shortened: as §1

[6] = compound: O=C1NC(=O)C(c2cnc3ccccn23)=C1c1cn2c3c(cc(F)cc13)CN(C(=O)N1CCCCC1)CC2
Procedure, shortened: as §1

Measured: log2 fold change

ZEB1 isoform 2 (UniProt P37275)
inactive: [1] 0.043 | [2] -0.007 | [3] 0.013 | [4] 0 | entinostat 0.036 | vorinostat 0.272 | citarinostat 0.084 | silmitasertib -0.1 | [5] 0.011 | entospletinib -0.106

ZDHHC13 (UniProt Q8IUH4)
inactive: [1] -0.014 | [2] -0.051 | entinostat 0.011 | citarinostat -0.326 | [6] 0.224 | [5] 0.154 | entospletinib 0.038

XPO7 (UniProt E7ESC6)
inactive: [1] -0.018 | [2] -0.037 | [3] -0.117 | [4] -0.029 | entinostat 0.023 | vorinostat 0 | citarinostat 0.05 | silmitasertib 0.005 | [6] -0.056 | [5] -0.029 | entospletinib 0.003

XRCC4 (UniProt Q13426)
inactive: [1] -0.041 | [2] -0.062 | [3] -0.039 | [4] -0.022 | entinostat -0.055 | vorinostat -0.068 | citarinostat 0.045 | silmitasertib 0.022 | [6] -0.013 | [5] -0.036 | entospletinib -0.031

ZFC3H1 (UniProt O60293)
inactive: [1] -0.177 | [2] -0.125 | [3] 0.141 | entinostat 0.034 | citarinostat -0.062 | silmitasertib 0.115 | [5] 0.267 | entospletinib 0.101

ZBTB21 (UniProt Q9ULJ3)
inactive: [1] -0.083 | [2] -0.044 | [3] 0.047 | [4] -0.042 | entinostat -0.074 | vorinostat 0.079 | silmitasertib 0.104 | [6] -0.226

YARS (UniProt P54577)
inactive: [1] -0.034 | [2] -0.104 | [3] -0.044 | [4] -0.045 | entinostat 0.011 | vorinostat 0.023 | citarinostat 0.057 | silmitasertib 0.061 | [6] 0.042 | [5] -0.032 | entospletinib 0.028

ZNF239 (UniProt Q16600)
inactive: [1] 0.015 | [2] -0.092 | [3] -0.253 | [4] -0.027 | entinostat -0.023 | vorinostat 0.275 | silmitasertib 0.29 | [6] 0.082

ZNF106 (UniProt Q9H2Y7)
inactive: [1] 0.124 | [4] -0.1 | entinostat 0.092 | citarinostat -0.192 | [5] 0.028 | entospletinib 0.031

ZFR (UniProt Q96KR1)
inactive: [1] -0.104 | [3] 0.118 | [4] 0.081 | entinostat -0.041 | vorinostat 0.089 | citarinostat 0.104 | silmitasertib 0.081 | [6] 0.258 | [5] -0.072 | entospletinib -0.031

YIF1B (UniProt Q5BJH7)
inactive: [1] -0.009 | [2] -0.043 | [3] -0.045 | [4] 0.062 | entinostat 0.081 | vorinostat -0.041 | citarinostat 0.019 | silmitasertib 0.027 | [6] 0.064 | [5] -0.057 | entospletinib 0.042

ZCCHC17 (UniProt Q9NP64)
inactive: [1] -0.064 | [4] -0.137 | entinostat 0.081

ZBTB24 (UniProt O43167)
inactive: [1] 0.013 | [2] 0.047 | entinostat -0.215 | vorinostat -0.007 | citarinostat 0.079 | [6] 0.228 | [5] -0.157 | entospletinib -0.084

ZFYVE19 (UniProt Q96K21)
inactive: [1] 0.02 | [2] 0.084 | [3] 0.058 | [4] -0.007 | entinostat -0.039 | vorinostat 0.024 | citarinostat -0.059 | silmitasertib -0.019 | [6] 0.045 | [5] 0.023 | entospletinib 0.013

ZNF148 (UniProt Q9UQR1)
inactive: [1] 0.285 | [2] 0.16 | [3] 0.058 | entinostat -0.093 | vorinostat -0.225 | silmitasertib 0.06 | [6] 0.136

ZDHHC2 (UniProt Q9UIJ5)
inactive: [1] -0.019 | [3] -0.095 | entinostat -0.038 | vorinostat 0.014 | citarinostat 0.101 | silmitasertib 0.137 | [5] -0.176 | entospletinib -0.092

ZBTB7B isoform 2 (UniProt O15156)
inactive: [1] 0.025 | [4] 0.035 | entinostat -0.202 | citarinostat 0.131 | [5] 0.099 | entospletinib 0.22

ZEB2 (UniProt O60315)
inactive: [1] 0.003 | [3] -0.127 | [4] -0.343 | entinostat -0.03 | silmitasertib -0.001 | [6] 0.116

XRCC1 (UniProt P18887)
inactive: [1] -0.011 | [2] -0.183 | entinostat 0.064 | vorinostat 0.228 | [6] -0.211

ZBTB43 (UniProt O43298)
inactive: [1] -0.018 | [2] 0.092 | [4] 0 | entinostat -0.091 | vorinostat -0.005 | citarinostat -0.173 | [6] 0.196 | [5] -0.026

ZC3H7B (UniProt Q9UGR2)
inactive: [1] 0.132 | [3] 0.274 | entinostat -0.095 | vorinostat 0.198 | citarinostat -0.042 | silmitasertib 0.352 | [5] -0.27 | entospletinib 0.071

ZFYVE9 (UniProt O95405)
inactive: [1] -0.035 | [3] -0.28 | [4] 0.037 | entinostat 0.133 | citarinostat 0.26 | silmitasertib 0.017 | [6] -0.077 | [5] -0.135 | entospletinib 0.218

ZDHHC4 (UniProt Q9NPG8)
inactive: [1] 0.067 | [3] -0.07 | [4] 0.025 | entinostat 0.062 | silmitasertib 0.021 | [6] -0.042

ZG16B (UniProt Q96DA0)
inactive: [1] 1.26 | [2] 0.156 | [3] 0.002 | [4] -0.26 | entinostat -0.006 | citarinostat -0.067 | silmitasertib 0.506 | [5] 0.322 | entospletinib -0.313

YBX3 isoform 2 (UniProt P16989)
inactive: [1] -0.062 | [2] 0.032 | [3] 0.308 | [4] 0.155 | entinostat -0.13 | citarinostat -0.013 | silmitasertib 0.161 | [6] 0.072 | [5] -0.062 | entospletinib 0.092

ZDHHC18 (UniProt Q9NUE0)
inactive: [1] -0.023 | [2] 0.027 | [3] -0.098 | entinostat -0.007 | vorinostat -0.143 | citarinostat -0.133 | silmitasertib -0.021 | [6] 0.024 | [5] 0.024 | entospletinib 0.185

ZBTB7A (UniProt O95365)
inactive: [1] -0.079 | [2] -0.02 | entinostat -0.117 | citarinostat 0.061 | [6] 0.128 | [5] -0.014 | entospletinib -0.128

ZFAND1 (UniProt Q8TCF1)
inactive: [1] 0.025 | [3] -0.088 | [4] 0.439 | entinostat 0.002 | citarinostat 0.119 | silmitasertib -0.158 | [5] 0.072 | entospletinib -0.058

ZKSCAN8 (UniProt Q15776)
inactive: [1] -0.052 | [4] 0.103 | entinostat -0.006 | vorinostat 0.188 | citarinostat -0.024 | [6] 0.268 | [5] -0.177 | entospletinib 0.14

ZMYM4 (UniProt Q5VZL5)
inactive: [1] 0.29 | [3] -0.146 | [4] 0.007 | entinostat 0 | vorinostat 0.041 | citarinostat 0.068 | silmitasertib -0.014 | [6] 0.088 | [5] 0.014 | entospletinib -0.179

ZBTB14 (UniProt O43829)
inactive: [3] 0.124 | silmitasertib 0.111

ZBTB33 (UniProt Q86T24)
inactive: citarinostat 0.151 | [5] 0.163 | entospletinib -0.171

ZMYND8 isoform 19 (UniProt Q9ULU4)
inactive: citarinostat 0.095 | [6] -0.077 | [5] 0.138 | entospletinib 0.226

ZFHX4 isoform 5 (UniProt Q86UP3)
inactive: [1] 0.125 | entinostat 0.002

ZFPM2 (UniProt Q8WW38)
inactive: [2] 0.056 | [3] -0.071 | silmitasertib 0.078
